This is an account of results in article PMC5079630.

By UniProt entry, the sequences of proteins in these tests, tags left out.
UniProt P52294: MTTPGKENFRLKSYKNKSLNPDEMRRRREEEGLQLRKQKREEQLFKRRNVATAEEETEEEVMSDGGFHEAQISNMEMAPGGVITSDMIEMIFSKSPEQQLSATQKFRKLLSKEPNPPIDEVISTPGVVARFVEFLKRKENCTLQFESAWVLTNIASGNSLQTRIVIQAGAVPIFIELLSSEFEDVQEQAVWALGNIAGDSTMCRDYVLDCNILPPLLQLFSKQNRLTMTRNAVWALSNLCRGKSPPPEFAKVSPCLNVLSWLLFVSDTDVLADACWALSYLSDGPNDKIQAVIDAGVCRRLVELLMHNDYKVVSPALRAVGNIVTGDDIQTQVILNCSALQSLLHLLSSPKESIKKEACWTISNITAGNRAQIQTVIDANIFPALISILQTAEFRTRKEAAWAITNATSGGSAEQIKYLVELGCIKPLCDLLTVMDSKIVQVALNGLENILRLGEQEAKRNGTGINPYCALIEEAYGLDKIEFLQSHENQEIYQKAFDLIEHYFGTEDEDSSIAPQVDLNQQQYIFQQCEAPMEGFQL
UniProt P52630: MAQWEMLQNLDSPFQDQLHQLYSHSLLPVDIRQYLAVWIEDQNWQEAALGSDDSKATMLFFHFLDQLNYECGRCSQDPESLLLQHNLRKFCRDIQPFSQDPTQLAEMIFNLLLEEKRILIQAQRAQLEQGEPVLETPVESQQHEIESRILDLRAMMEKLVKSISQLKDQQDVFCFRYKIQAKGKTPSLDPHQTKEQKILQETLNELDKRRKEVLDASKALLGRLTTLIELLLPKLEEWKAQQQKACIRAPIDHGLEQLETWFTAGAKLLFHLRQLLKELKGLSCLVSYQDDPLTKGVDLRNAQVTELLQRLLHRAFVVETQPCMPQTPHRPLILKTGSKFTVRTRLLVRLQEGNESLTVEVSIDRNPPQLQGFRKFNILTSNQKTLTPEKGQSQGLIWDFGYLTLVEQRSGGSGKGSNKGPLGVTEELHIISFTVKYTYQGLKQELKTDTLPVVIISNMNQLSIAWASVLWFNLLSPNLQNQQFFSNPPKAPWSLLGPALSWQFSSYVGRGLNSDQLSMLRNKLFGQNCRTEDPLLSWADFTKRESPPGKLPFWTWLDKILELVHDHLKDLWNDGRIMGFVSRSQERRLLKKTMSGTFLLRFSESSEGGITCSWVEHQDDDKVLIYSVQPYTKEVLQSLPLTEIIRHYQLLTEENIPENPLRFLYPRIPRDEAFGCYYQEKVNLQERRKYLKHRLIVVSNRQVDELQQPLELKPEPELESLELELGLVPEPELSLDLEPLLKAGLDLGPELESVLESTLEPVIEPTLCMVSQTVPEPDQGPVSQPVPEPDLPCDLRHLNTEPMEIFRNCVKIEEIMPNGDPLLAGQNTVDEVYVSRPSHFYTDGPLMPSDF

The target of this test is FLAG-tagged importin-α5 (UniProt P52294). As to the kind of experiment: co-IP; anti-FLAG M2 magnetic beads; extracts of HEK 293T cells cotransfected with FLAG-tagged importin-α5 and YFP-tagged STAT1 or STAT1-Y701F; cells treated with IFN-β for 1 h; immunoblot. A general note: In western blotting, separated proteins are transferred to a membrane and probed.

No constants are given. Whether binding was seen depends on the method and setting. Binding seen in cells or lysates may run through a third protein. Some binding calls cover weakened binding; strength is not graded here.

Regarding “endogenous STAT2, activated (IFN-β-treated HEK 293T cells) (from UniProt P52630 1-851)”, the binding result is “binds”.
